The values below come from patent publication US9145424B2, “Treatment of amyotrophic lateral sclerosis” (Northwestern University, priority 2008, dated 2015).

The data set concerns PC12 cells that express mutant G93A SOD1. The data set is described as follows: Mutant SOD1-induced cytotoxicity protection assay. Here is the method: This idea was tested by examining the sensitivity of PC12 cells to SOD1 aggregates in the presence and absence of proteasome inhibitor MG132. PC12 cells expressing no SOD1, wild type SOD1, G85R SOD1 or G93A SOD1 were grown with or without MG132 (FIG. 1).
PC12 cells expressing G93A SOD1 were treated with 100 nM MG132 with or without co-treatment with geldanamycin or radicicol.

`Nc1nc2ccc(OC(F)(F)F)cc2s1` [riluzole, Riluzole, reference compound]: the “activity in the cytotoxicity protection assay, in words” value is recorded as “negative”.
